Experimental data taken from US20150376238A1 (University of Washington, published 2015).
Results are given in words; binding and its absence hold for the method and conditions named.

Molecular target: H1 hemagglutinin (A/Solomon Islands/3/2006) (Influenza A virus A/Solomon Islands/3/2006 (H1N1))
Assay: yeast surface display titration

B1: 52alt1-3 (designed binder)
chain: GIVNVPNPNTTKYQQLARSAIAIYNNHQNAHLEFVENLNVKEQVSYGAMYYITLAATDDAGKKKIYKAKVGVVESAGWVGVEEFKLV
Q: With B1 as the binder, how does the binding read?
A: no binding
